These results are taken from patent US20240124510A1, “Cyclic Glycoaminoacid Derivatives” (TFCHEM, priority 2021, published 2024).

The test system of the series is normal human dermal fibroblasts (NHDF). Kind of series: Identification of biological processes involved (DAVID / Gene Ontology functional annotation of modulated genes). As to conditions: 2 mg/ml versus Control.
The mark [1] stands for this setting: Term: Cholesterol biosynthetic process.
Where [2] appears, read: Term: Cholesterol metabolic process.
The mark [3] stands for this setting: Term: Extracellular matrix organization.
The mark [4] stands for this setting: Term: Oxidation-reduction process.

As for `N[C@H]1CCCN(CC(F)(F)[C@]2(O)O[C@H](CO)[C@H](O)[C@H](O)[C@H]2O)C1=O` [Compound 6], the “%” value amounted to 0.01072% under setting [1]; 0.009291% under setting [2]; 0.02358% under setting [3]; 0.01572% (Term: Lipid metabolic process); 0.03859% under setting [4]; 0.007147% (Term: Response to wounding). Also, the “%” value (Term: Wound healing) was 0.007861%. Also, the Count under setting [1] is given as 15; the Count under setting [2] was 13; the Count under setting [3] came to 33; the Count (Term: Lipid metabolic process) came out at 22; the Count under setting [4] stood at 54; the Count (Term: Response to wounding) is listed as 10. The same molecule had a Count (Term: Wound healing) of 11.
